{"source": "patent US20050196380A1", "about": "“Method for delivering therapeutic proteins to the intradermal compartment” (priority 2004, published 2005)", "molecules": {"B1": {"name": "GCSF: human granulocyte colony stimulating factor (GCSF) (Neupogen) (protein, chains of the INN, looked up)", "chain": "MTPLGPASSLPQSFLLKCLEQVRKIQGDGAALQEKLCATYKLCHPEELVLLGHSLGIPWAPLSSCPSQALQLAGCLSQLHSGLFLYQGLLQALEGISPELGPTLDTLQLDVADFATTIWQQMEELGMAPALQPTQGAMPAFASAFQRRAGGVLVASHLQSFLEVSYRVLRHLAQP"}}, "experiment": "Bolus ID delivery of GCSF to Yucatan minipigs, plasma GCSF by ELISA", "format": "in vivo", "procedure": "Bolus ID delivery of human granulocyte colony stimulating factor (GCSF) (Neupogen) was administered via dermal access microdevice designs SS3—34B (array) or SS1—34 (single needle) to Yucatan minipigs. Delivery rate was controlled via a Harvard syringe pump and was administered over a 1-2.5 min period. […] Administration via IV and SC delivery was performed as controls.", "note": "The name of at least one read-out is uncertain."}
{"molecule": "B1", "values": [{"measurement": "time at which Cmax is achieved", "setting": "SC delivery", "value": 120, "unit": "min"}, {"measurement": "time at which Cmax is achieved", "setting": "bolus ID delivery (array or single needle)", "value": "30 to 90", "unit": "min"}]}
